Where a name gives a salt, the structure may show the parent alone.
Test: ICH-compliant stability study of ONC206-HCl Drug Substance (appearance, XRPD form, HPLC assay, purity/impurities, water content, particle size, microbial)
Format: physicochemical
Design: key to Escherichia Coli (Absence in 1 g) / Escherichia Coli (Absence in lg): C = Conforms; A = Absence
Procedure: The purpose of the ICH-compliant stability study was to evaluate the performance to specifications of ONC206-HCl Drug Substance under specified container closure configuration, storage conditions, and intervals.
The study was performed according to ICH Q1A(R2) and QlE Guidance documents. […]
The Container Closure Systems were: • Primary container: LDPE bag, 4×8 inches (Source: Nexus—64378); bag closure PE 180 nm (Source: Entourage), • Secondary container: LDPE bag, 4×8 inches (Source: Nexus—64378); bag closure PE 180 nm (Source: Entourage), • Tertiary container: Heat-sealed foil bag, 15×30 (Source: SERCALIA S.L.—10234), and • Outer container: Plastic drum, 6 L (Source: Curtec, HDPE ref 54021) or Plastic drum, 3.6 L (Source: Curtec).

[1] = 25 ± 2° C./60% ± 5% RH long term storage conditions, 6 months
[2] = 25 ± 2° C./60% ± 5% RH long term storage conditions, 12 months
[3] = 30 ± 2° C./65% ± 5% RH intermediate conditions, 6 months
[4] = 30 ± 2° C./65% ± 5% RH intermediate conditions, 12 months
[5] = 40 ± 2° C./75% ± 5% RH accelerated conditions, 6 months

O=C1C2=C(CCN(Cc3ccccc3)C2)N2CCN=C2N1Cc1ccc(F)cc1F [ONC206-HCl, 7-benzyl-4-(2,4-difluorobenzyl)-2,4,6,7,8,9-hexahydroimidazo[1,2-a]pyrido[3,4-e]pyrimidin-5(1H)-one]
Escherichia Coli (Absence in 1 g) (2-8° C., 6 months): A
Toral aerobic microbial count (NMT 1000 CFU/g) (2-8° C., 6 months): <200 CFU/g
Total Combined yeast & molds Count (NMT 1000 CFU/g) (2-8° C., 6 months): <5 CFU/g
Escherichia Coli (Absence in 1 g) [1]: A
Toral aerobic microbial count (NMT 1000 CFU/g) [1]: <200 CFU/g
Total Combined yeast & molds Count (NMT 1000 CFU/g) [1]: <5 CFU/g
Escherichia Coli (Absence in 1 g) [2]: A
Toral aerobic microbial count (NMT 1000 CFU/g) [2]: <200 CFU/g
Total Combined yeast & molds Count (NMT 1000 CFU/g) [2]: <5 CFU/g
Escherichia Coli (Absence in 1 g) [3]: A
Toral aerobic microbial count (NMT 1000 CFU/g) [3]: <200 CFU/g
Total Combined yeast & molds Count (NMT 1000 CFU/g) [3]: <5 CFU/g
Escherichia Coli (Absence in 1 g) [4]: A
Toral aerobic microbial count (NMT 1000 CFU/g) [4]: <200 CFU/g
Total Combined yeast & molds Count (NMT 1000 CFU/g) [4]: <5 CFU/g
Escherichia Coli (Absence in 1 g) [5]: A
Toral aerobic microbial count (NMT 1000 CFU/g) [5]: <200 CFU/g
Total Combined yeast & molds Count (NMT 1000 CFU/g) [5]: <5 CFU/g
Escherichia Coli (Absence in lg) (−20° C., 6 months): A
Toral aerobic microbial count (NMT 1000 CFU/g) (−20° C., 6 months): <200 CFU/g
Total Combined yeast & molds Count (NMT 1000 CFU/g) (−20° C., 6 months): <5 CFU/g
Escherichia Coli (Absence in lg) (−20° C., 12 months): A
Toral aerobic microbial count (NMT 1000 CFU/g) (−20° C., 12 months): <200 CFU/g
Total Combined yeast & molds Count (NMT 1000 CFU/g) (−20° C., 12 months): <5 CFU/g
